{"source": "PubChem BioAssay AID1487", "about": "(National Center for Advancing Translational Sciences (NCATS), 2009)", "note": "The whole screen tested about 200,000 compounds, of which about 25 (0.01%) were called active. This list was built around the results that the source calls inconclusive (neither active nor inactive); the mix of calls is not that of the screen. Calls come from the whole dose curve; as a rule, active = well fitted inhibition curve with a large enough effect in the signal ratio, with a control signal flat (not every such curve was filed as active); inconclusive = small, poorly fitted or top-dose-only effect, or effect the other way, or a change in a side signal; inactive = flat fitted curve, though single readings scatter; the % refers to the signal ratio. Potencies beside an inconclusive call are fits to weak or partial responses and may not hold up. % is set by controls: 0 for no effect and ±100 for the full control effect; potency is the fitted concentration of half-maximal effect."}
{"experiment": "qHTS Assay for Modulators of Lamin A Splicing", "settings": "HeLa LMNA splicing GFP/RFP minigene ratio, 48 h; ratio change, negative = inhibition: at 46.1 µM (top of the series) unless noted", "how_it_was_run": "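S3 HeLa cells stably expressing lamin A-EGFP splicing minigene plus DsRed2, 600 cells/well, 48 h compound exposure at 37C. Laser-scanning cytometry; analysed as GFP (500-530 nm)/RFP (575-640 nm) total intensity ratio; 0.5% DMSO vehicle.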"}
{"smiles": "CCc1[nH]nc2c1C(C1C=CCCC1)C(C#N)=C(N)O2", "note": "(stereo unspecified)", "ratio change, negative = inhibition": "inconclusive: -23.9% [at 46 µM]"}
{"smiles": "O=C(c1c[nH]c2ccccc12)N1CCN(Cc2ccccc2)CC1", "ratio change, negative = inhibition": "inconclusive: -18.1% [at 46 µM]"}
{"smiles": "COCC(=O)N(Cc1cc2ccccc2[nH]c1=O)c1ccccc1OC", "ratio change, negative = inhibition": "inactive: -5.81%"}
{"smiles": "CCOc1ccc(-c2nonc2NC(=O)c2oc3cc(Br)ccc3c2C)cc1", "ratio change, negative = inhibition": "inconclusive: -26.3% [at 46 µM]"}
{"smiles": "CSc1ccccc1NC(=O)CO/N=C(\\C)c1cc2ccccc2o1", "ratio change, negative = inhibition": "inconclusive: -41.9%"}
{"smiles": "CN(C(=O)CCc1nc2ccccc2s1)c1ccccc1", "ratio change, negative = inhibition": "inactive: -3.89%"}
{"smiles": "Cc1ccc(Cl)c(OCCCN(C)Cc2ccccc2)c1", "ratio change, negative = inhibition": "inconclusive: -30.5% [at 46 µM]"}
{"smiles": "O=C1CC(c2ccccc2)=Nc2ccc(Br)cc2N1", "ratio change, negative = inhibition": "inconclusive: -4.39% [at 46 µM]"}
{"smiles": "COc1cc2c(cc1OC)C(COc1ccc(C(C)C)cc1)N(C(=O)COc1ccccc1)CC2", "note": "(stereo unspecified)", "ratio change, negative = inhibition": "inconclusive: -30% [at 46 µM]"}
{"smiles": "O=C(N/N=C/c1ccc([N+](=O)[O-])cc1)c1[nH]ncc1Br", "ratio change, negative = inhibition": "inconclusive: -12.4% [at 46 µM]"}
{"smiles": "COCCn1c(=O)c(CCc2ccccc2)nc2cnc(Oc3ccccc3)nc21", "ratio change, negative = inhibition": "inconclusive: -14.9%"}
{"smiles": "COc1ccc(/C=N/NC(=S)Nc2cc(S(=O)(=O)N3CCOCC3)ccc2N2CCOCC2)cc1O", "ratio change, negative = inhibition": "inconclusive: -27.6%"}
{"smiles": "Cc1ccc(NS(=O)(=O)c2cc(C(=O)N3CCCC3)ccc2C)cc1C", "ratio change, negative = inhibition": "inconclusive: 11.1% [at 46 µM]"}
{"smiles": "COC(=O)CN(C)C(=O)CC1C(=O)NCCN1CC(C)(C)C", "note": "(stereo unspecified)", "ratio change, negative = inhibition": "inactive: 14.4% [at 46 µM]"}
{"smiles": "CC(C(=O)NC1CCCC1)N(c1ccc(Oc2ccccc2)cc1)S(C)(=O)=O", "note": "(stereo unspecified)", "Potency": "inconclusive: 35.5 µM [inhibitor, single point]"}
{"smiles": "COc1ccc2cc(CN(Cc3ccco3)C(c3nnnn3C3CCCCC3)C(C)C)c(=O)[nH]c2c1", "note": "(stereo unspecified)", "ratio change, negative = inhibition": "inactive: 10.9%"}
{"smiles": "CC(Nc1nc(N2CCNCC2)nc2ccccc12)c1ccccc1", "note": "(stereo unspecified)", "ratio change, negative = inhibition": "inconclusive: -13.3% [at 9.22 µM]"}
{"smiles": "CC(C)OC(=O)CSc1nnc(-c2cnccn2)n1-c1ccc(Cl)cc1", "ratio change, negative = inhibition": "inactive: 13.6%"}
{"smiles": "COC(=O)c1cnc(N2CCCN(S(=O)(=O)c3ccc(C(F)(F)F)cc3)CC2)nc1C(F)(F)F", "Potency": "inconclusive: 1.41 µM [activator, full curve, poor fit]"}
{"smiles": "CCOc1ccc(-c2csc(/C(C#N)=C\\c3ccc(O)c([N+](=O)[O-])c3)n2)cc1", "ratio change, negative = inhibition": "inconclusive: -28%"}
{"smiles": "O=C(C1=C(O)C(=O)N(Cc2ccccc2)C1c1ccncc1)c1ccco1", "note": "(stereo unspecified)", "ratio change, negative = inhibition": "inactive: 3.03%"}
{"smiles": "CCOc1ccccc1N(CC)C(=O)c1cc2ccc3cccnc3c2[nH]1", "ratio change, negative = inhibition": "inconclusive: 0.484% [at 46 µM]"}
{"smiles": "COC(=O)C(NS(=O)(=O)c1ccc(C)cc1)c1ccccc1", "note": "(stereo unspecified)", "ratio change, negative = inhibition": "inactive: 9.71% [at 46 µM]"}
{"smiles": "CN1CCN(c2ncnc3ccc(-c4ccoc4)cc23)CC1", "ratio change, negative = inhibition": "inconclusive: -4.21%"}
{"smiles": "CCN1CCN(c2cc3c(cc2F)c(=O)c(S(=O)(=O)c2cc(C)cc(C)c2)cn3CC)CC1", "ratio change, negative = inhibition": "inconclusive: -13.8% [at 46 µM]"}
{"smiles": "CCOc1ccc(-c2nonc2NC(=O)COc2ccccc2)cc1", "ratio change, negative = inhibition": "inconclusive: 26.6% [at 46 µM]"}
{"smiles": "CCOC(=O)c1ccc(NC(=O)c2c(NCc3cc(OC)c(OC)cc3OC)sc3c2CCCC3)cc1", "ratio change, negative = inhibition": "inconclusive: -36.7% [at 46 µM]"}
{"smiles": "COCCNC(=O)c1ccc(N2CCCCC2)c(NS(=O)(=O)c2ccc(C)cc2)c1", "ratio change, negative = inhibition": "inactive: -4.33%"}
{"smiles": "CCN(CC)CCCOc1ccc(C)cc1Br", "ratio change, negative = inhibition": "inactive: 23.7%"}
{"smiles": "C=CCN1C(=Nc2ccccc2)SC/C1=C\\C(=O)OC", "ratio change, negative = inhibition": "inconclusive: 12.1%"}
{"smiles": "O=c1[nH]cc(C(F)(F)F)cc1NS(=O)(=O)c1ccc([N+](=O)[O-])cc1", "Potency": "inconclusive: 3.16 µM [activator, single point]"}
{"smiles": "CCOc1ccc(Nc2nc(Cc3nnc(SCC(=O)c4ccc(C)c(C)c4)o3)cs2)cc1", "Potency": "inconclusive: 12.6 µM [falling, partial curve]"}
{"smiles": "O=C(Nc1ccc(N2CCN(C(=O)c3ccc(Cl)cc3)CC2)cc1)c1cc2ccccc2o1", "ratio change, negative = inhibition": "inconclusive: -12.7%"}
{"smiles": "Cn1c(SCC(=O)c2ccccc2)nnc1-c1ccncc1", "ratio change, negative = inhibition": "inconclusive: 4.72% [at 46 µM]"}
{"smiles": "Cc1cc(N/N=C/c2cccc(Cl)c2)nc(NCc2ccccc2)n1", "Potency": "inconclusive: 12.6 µM [falling, partial curve]"}
{"smiles": "N#CCc1nc(CSc2nc3ccccc3s2)cs1", "ratio change, negative = inhibition": "inactive: 17%"}
{"smiles": "CN(C)CCCN1c2ccccc2Sc2ccccc21", "Potency": "inconclusive: 35.5 µM [inhibitor, single point]"}
{"smiles": "CCOc1ccc(-n2c(Cc3cc(=O)[nH]c(=O)[nH]3)nnc2SCC(=O)NC2CCCC2)cc1", "ratio change, negative = inhibition": "inactive: 2.8%"}
{"smiles": "N#C/C(=C\\c1ccc(-c2ccc([N+](=O)[O-])cc2Br)o1)C(=O)N1CCN(c2ccccc2)CC1", "ratio change, negative = inhibition": "inactive: -6.87%"}
{"smiles": "Cc1cccc(C(=O)Nc2ccccc2C(=O)OCc2cc(=O)n3nc(C4CC4)sc3n2)c1", "ratio change, negative = inhibition": "inconclusive: 8.97% [at 46 µM]"}
{"smiles": "COCc1cc(C)nc2sc3c(=O)n(-c4cccc5ccccc45)nnc3c12", "ratio change, negative = inhibition": "inconclusive: -18.6%"}
{"smiles": "CCOC(=O)N1CCN(S(=O)(=O)c2cccs2)CC1", "ratio change, negative = inhibition": "inactive: 6.97%"}
{"smiles": "Cc1cc(C(C)(C)C)c(O)c(C)c1CC1=NCCN1", "ratio change, negative = inhibition": "inconclusive: -19.4%"}
{"smiles": "COc1ccc(N2C(=O)[C@@H]3[C@H](C2=O)[C@H]2c4ccccc4C=CN2[C@@H]3C(C)=O)cc1", "ratio change, negative = inhibition": "inactive: -6.04%"}
{"smiles": "CC(=O)NC1=NN(C(C)=O)C(C)(c2ccccc2)S1", "note": "(stereo unspecified)", "Potency": "inconclusive: 2.82 µM [falling, full curve]"}
{"smiles": "O=C(NCc1cccnc1)c1cccs1", "ratio change, negative = inhibition": "inactive: 7.05% [at 46 µM]"}
{"smiles": "COc1cccc(/C=N/Nc2ncc(C(F)(F)F)cc2Cl)c1O", "ratio change, negative = inhibition": "inconclusive: -42.2%"}
{"smiles": "COc1ccc(-c2csc3ncnc(Cl)c23)cc1", "ratio change, negative = inhibition": "inconclusive: -0.534% [at 46 µM]"}
{"smiles": "COc1cccc(N2CCN(c3ncnc4onc(-c5ccc(Cl)cc5)c34)CC2)c1", "ratio change, negative = inhibition": "inactive: 13.2% [at 46 µM]"}
{"smiles": "Cc1ccc(C)c(Nc2nn3c(=O)c4ccc(C(=O)NCc5cccs5)cc4nc3s2)c1", "ratio change, negative = inhibition": "inconclusive: 477% [at 46 µM]"}
{"smiles": "S=c1[nH]nc(Cn2nnc3ccccc32)n1-c1ccc(Cl)cc1", "ratio change, negative = inhibition": "inactive: -2.11% [at 46 µM]"}
{"smiles": "CC(=O)C1=C(O)C(=O)N(c2cc(C(C)(C)C)on2)C1c1ccc(Br)cc1", "note": "(stereo unspecified)", "ratio change, negative = inhibition": "inconclusive: -39.9%"}
{"smiles": "COc1ccc(OC)c(NC(=O)COC(=O)c2cc3c(s2)CCC3)c1", "ratio change, negative = inhibition": "inconclusive: 0.745% [at 46 µM]"}
{"smiles": "CCOC(=O)c1cc(-c2cc3ccccc3o2)nc2c1c(=O)[nH]c(=O)n2CCOC", "ratio change, negative = inhibition": "inactive: 3.11%"}
{"smiles": "CC(=O)c1cc(C#N)c(N(C)Cc2ccccc2)nc1C", "ratio change, negative = inhibition": "inconclusive: -22.1% [at 46 µM]"}
{"smiles": "CC[n+]1c(/C=C/N(C)c2ccccc2)oc2ccc(Cl)cc21", "Potency": "inconclusive: 11.2 µM [falling, partial curve, poor fit]"}
{"smiles": "COc1ccc(C(=O)NCC(c2ccco2)S(=O)(=O)c2cccs2)cc1", "note": "(stereo unspecified)", "ratio change, negative = inhibition": "inactive: 10.4% [at 46 µM]"}
{"smiles": "O=C(O)CCC(=O)Nc1cc(C(F)(F)F)cc(C(F)(F)F)c1", "Potency": "inconclusive: 3.55 µM [activator, partial curve, poor fit]"}
{"smiles": "Cc1cc(C(=O)Nc2c(C)nn(Cc3c(Cl)cccc3Cl)c2C)no1", "Potency": "inconclusive: 15.8 µM [inhibitor, single point]"}
{"smiles": "CN(C)CCCN(Cc1cc2cc3c(cc2[nH]c1=O)OCO3)C(=S)Nc1ccccc1", "ratio change, negative = inhibition": "inconclusive: -12.8% [at 46 µM]"}
{"smiles": "Cn1c(=O)c2c(nc(-n3ccnc3)n2Cc2ccccc2)n(C)c1=O", "ratio change, negative = inhibition": "inconclusive: 5.19%"}
{"smiles": "CCOC(=O)c1ccc(NC2=CC(=O)CC(c3ccco3)C2)cc1", "note": "(stereo unspecified)", "ratio change, negative = inhibition": "inactive: 2.74% [at 46 µM]"}
{"smiles": "COc1ccc(NC(C)=O)cc1S(=O)(=O)Nc1ccccc1C(=O)N1CCCC1", "ratio change, negative = inhibition": "inconclusive: 14.5% [at 46 µM]"}
{"smiles": "CCc1ccc(NC(=O)N2CCN(C(=O)c3nsc4ccccc34)CC2)cc1", "ratio change, negative = inhibition": "inconclusive: 7.11% [at 46 µM]"}
{"smiles": "Fc1ccc(/C=N/n2c(-c3cccs3)n[nH]c2=S)cc1", "ratio change, negative = inhibition": "inactive: 8.02%"}
{"smiles": "CCCCOc1ccc(-c2nnn(CC(=O)NCc3ccco3)n2)cc1", "ratio change, negative = inhibition": "inactive: -17%"}
{"smiles": "CC(C)(C)NC(=O)Cn1cnc2cc([N+](=O)[O-])ccc2c1=O", "ratio change, negative = inhibition": "inactive: -2.83% [at 46 µM]"}
{"smiles": "O=C(NCc1cccc(Cl)c1)C1CCCN(c2ncnc3onc(-c4ccc(F)cc4)c23)C1", "note": "(stereo unspecified)", "ratio change, negative = inhibition": "inconclusive: -11.4% [at 46 µM]"}
{"smiles": "CC(NC(=O)c1ccco1)C(c1cccs1)N1CCN(c2ccccc2F)CC1", "note": "(stereo unspecified)", "Potency": "inconclusive: 35.5 µM [falling, single point]"}
{"smiles": "CCN1CC(CN(C)Cc2nc(-c3ccco3)oc2C)CC1=O", "note": "(stereo unspecified)", "ratio change, negative = inhibition": "inconclusive: -21.3% [at 46 µM]"}
{"smiles": "CCNC(=O)c1c(C)nc2ccccn12", "ratio change, negative = inhibition": "inconclusive: 2.28%"}
{"smiles": "O=C(NCC1CCCO1)c1nc2c(nnn2Cc2ccccc2Cl)c(=O)[nH]1", "note": "(stereo unspecified)", "ratio change, negative = inhibition": "inactive: -3.54%"}
{"smiles": "CC1(c2ccccc2)NC(=S)N2C1NC(=S)N2c1ccccc1", "note": "(stereo unspecified)", "ratio change, negative = inhibition": "inactive: 15.2%"}
{"smiles": "CC(C)C1N=C(c2ccc3c(c2)OCO3)CC(c2ccccc2O)N1", "note": "(stereo unspecified)", "ratio change, negative = inhibition": "inconclusive: -40.5%"}
{"smiles": "COCc1cc(Sc2ccc(Cl)cc2)nc(C)n1", "ratio change, negative = inhibition": "inactive: 0.76% [at 46 µM]"}
{"smiles": "CCN(c1ccccc1)S(=O)(=O)c1ccc(N)c(OC)c1", "ratio change, negative = inhibition": "inconclusive: -37.1%"}
{"smiles": "Cc1ccc(C2C(C#N)=C(N)Oc3nc(-c4ccccc4)[nH]c32)o1", "note": "(stereo unspecified)", "ratio change, negative = inhibition": "inactive: 0.395%"}
{"smiles": "CC(NC(=O)C(=O)N/N=C/c1ccc(Cl)cc1)c1ccccc1", "note": "(stereo unspecified)", "ratio change, negative = inhibition": "inconclusive: 11.9% [at 46 µM]"}
{"smiles": "CCN(CC)S(=O)(=O)c1cc(NC(=O)C(C)N2CCc3ccccc32)ccc1C", "note": "(stereo unspecified)", "ratio change, negative = inhibition": "inconclusive: -21.2% [at 46 µM]"}
{"smiles": "Cc1ccc(-n2ncc3c(NCC(C)C)ncnc32)c(C)c1", "ratio change, negative = inhibition": "inconclusive: -30.4% [at 46 µM]"}
{"smiles": "Clc1cccc(OCCN2CCN(CCOc3cccc(Cl)c3)CC2)c1", "Potency": "inconclusive: 35.5 µM [inhibitor, single point]"}
